Data as given in PubChem BioAssay AID2685 (National Center for Advancing Translational Sciences (NCATS), 2010).
In all, about 320,000 compounds went through this assay and about 2,100 (0.66%) were called active. The shares of active, inactive and inconclusive entries below differ from those in the screen. Calls come from the whole dose curve; as a rule, active = well fitted inhibition curve with a large enough effect in the signal ratio, with a control signal flat (not every such curve was filed as active); inconclusive = small, poorly fitted or top-dose-only effect, or effect the other way, or a change in a side signal; inactive = flat fitted curve, though single readings scatter; the % refers to the signal ratio. A potency beside an inconclusive call is a rough fit, not a confirmed value.
% is set by controls: 0 for no effect and ±100 for the full control effect; potency is the fitted concentration of half-maximal effect.

Test: qHTS Assay for Lipid Storage Modulators in Drosophila S3 Cells
Settings: BODIPY lipid droplet fluorescence, 18-24 h, cells fed with added oleic acid; lipid storage change, negative = inhibition: at 46.1 µM (top of the series) unless noted
Method in brief: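 Drosophila S3 cells loaded with oleic acid (400 uM, as added) and compounds at several concentrations; lipid droplets imaged by 488-nm laser-scanning cytometry, 500–530 nm intensity and object ratio to cell channel. Percent activity normalized to 20 uM Triacsin C.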
For `Cc1cccn2c(=O)c3cc(C(=O)N4CCOCC4)n(C)c3nc12`, the lipid storage change, negative = inhibition was inconclusive: -17.6%.
For `Cc1ccc(CCC(=O)Nc2ccc(C#N)cc2)o1`, the lipid storage change, negative = inhibition was inconclusive: 6.09%.
For `CCOc1ccc(NS(=O)(=O)c2ccc(C(=O)NC3CCN(Cc4ccccc4)CC3)cc2)cc1`, the lipid storage change, negative = inhibition was inconclusive: 16.6%.
With `CCCS(=O)(=O)Nc1cccc(-c2nc3cccnc3s2)c1` the Potency was inconclusive: 18.4 µM [activator, single point].
For `CCC(=O)Nc1ccc(NC(=O)c2ccccc2)nc1`, the Potency was inconclusive: 1.16 µM [falling, single point].
With `CN(C)S(=O)(=O)c1ccc(Cl)c(NC(=O)COC(=O)CNC(=O)c2ccco2)c1` the lipid storage change, negative = inhibition was inconclusive: 9.7%.
In the case of `CCCc1nc2oc3c(NCC(C)O)ncnc3c2c2c1CCCC2` (centres undefined), the lipid storage change, negative = inhibition is reported as inconclusive: 9.25%.
For `O=C(CSc1ncnc2c1cnn2-c1cccc(Cl)c1)NCC1CCCO1` (centres undefined), the Potency was inconclusive: 15.8 µM [falling, single point].
With `O=C(COc1ccc([N+](=O)[O-])cc1)Nc1ccc(C(=O)NCc2cccnc2)cc1` the Potency was inconclusive: 4.11 µM [activator, full curve, poor fit].
For `O=C(CCN1CCN(c2ccccc2)CC1)NNC(=O)Cc1ccccc1Cl`, the lipid storage change, negative = inhibition was inconclusive: 13.5%.
With `C/C(Cn1cnc([N+](=O)[O-])n1)=N/NC(=O)COc1ccccc1Cl` the Potency was inconclusive: 4.11 µM [rising, full curve, poor fit].
For `CCN(CC)S(=O)(=O)c1ccc(C(=O)NNc2nc(-c3ccccc3)c3cc(Br)ccc3n2)cc1`, the lipid storage change, negative = inhibition was inconclusive: 38.4%.
For `N#Cc1c(/N=C/c2ccc(-c3ccccc3C(=O)O)o2)sc2c1CCCC2`, the lipid storage change, negative = inhibition was inconclusive: 7.68%.
With `COc1ccc(C(=O)N(CCc2ccccc2)Cc2ccccc2)cc1S(=O)(=O)N1CCOCC1` the lipid storage change, negative = inhibition was inconclusive: -26.2%.
With `CSc1cccc(NC(=O)CCCNC(=O)c2ccc(Cl)cc2)c1` the lipid storage change, negative = inhibition was inconclusive: 54.4%.
For `COc1ccc(S(=O)(=O)N2CCC(C(=O)NCc3ccncc3)CC2)cc1OC`, the Potency was inconclusive: 23.1 µM [activator, single point].
In the case of `Clc1ccc2nc(N3CCCCC3)sc2c1`, the lipid storage change, negative = inhibition is reported as inconclusive: -7.29%.
With `Cc1ccccc1-c1nc2cc(N)ccc2o1` the lipid storage change, negative = inhibition was inconclusive: 1.73%.
For `O=S(=O)(c1ccccc1)c1nc(-c2ccccc2)oc1N1CCCC1`, the “lipid storage change, negative = inhibition” value was inactive: 1.16%.
With `CCn1nc(C(=O)Nc2nc(-c3ccccn3)cs2)c2ccccc2c1=O` the Potency was inconclusive: 0.82 µM [activator, partial curve, poor fit].
For `COC(=O)C1=C(C)N(c2ccc(Cl)c(Cl)c2)C(=O)C1`, the lipid storage change, negative = inhibition was inconclusive: -14.8%.
In the case of `CC1(C)CC(=O)C2=C(C1)NC(=O)CC2c1ccc(F)cc1` (centres undefined), the lipid storage change, negative = inhibition is reported as inconclusive: 13.7%.
With `CS(=O)(=O)c1ccc2nc(NC(=O)c3ccc(Cl)cc3)sc2c1` the Potency was inconclusive: 18.4 µM [activator, single point].
For `COC(=O)c1ccc(NC2CC(=O)N(c3ccccc3C)C2=O)cc1` (centres undefined), the lipid storage change, negative = inhibition was inconclusive: -54.8%.
For `CC(=O)OC1C(OC(C)=O)N(C(C)=O)C(=O)N1C(C)=O` (centres undefined), the Potency was inconclusive: 2.59 µM [falling, full curve, poor fit].
For `C/C(=N\Nc1nccnc1Cl)c1ccc(Cl)c(Cl)c1`, the lipid storage change, negative = inhibition was inconclusive: -7.76%.
With `Cn1nc(C(C)(C)C)c([N+](=O)[O-])c1C(=O)Nc1ccccc1` the lipid storage change, negative = inhibition was inconclusive: 8.79%.
In the case of `CC1CCc2c(sc3ncnc(NCCCOC(C)C)c23)C1` (centres undefined), the lipid storage change, negative = inhibition is reported as inconclusive: 333%.
With `OCCN1CCN(CCOc2cccc(Cl)c2)CC1` the lipid storage change, negative = inhibition was inconclusive: 12.6%.
With `COc1ccc2[nH]c(C(=O)Nc3ccc(F)cc3Br)cc2c1` the lipid storage change, negative = inhibition was inconclusive: -8.11%.
With `Cc1ccc2[nH]c(=O)c(CN(C)C(=O)c3cccs3)cc2c1` the “lipid storage change, negative = inhibition” value was inactive: -3.04%.
In the case of `N#C/C(=C\c1ccc(-c2ccc(Br)cc2)o1)C(=O)NCCc1c[nH]c2ccccc12`, the Potency is reported as inconclusive: 6.51 µM [rising, single point].
In the case of `Cn1c(=O)c2c(nc(NCCNC(=O)c3ccco3)n2Cc2ccc(Cl)cc2Cl)n(C)c1=O`, the lipid storage change, negative = inhibition is reported as inconclusive: 21.5%.
For `CCOc1ccc(Cn2c(SCCCCC#N)nc3c2c(=O)n(C)c(=O)n3C)cc1OCC`, the lipid storage change, negative = inhibition was inconclusive: -42.4% [at 0.0737 µM].
With `CC(C)(C)NC(=O)CN(C(=O)CS(=O)CC(=O)Nc1ccc(F)cc1)c1ccccc1F` (centres undefined) the lipid storage change, negative = inhibition was inconclusive: 0.008%.
For `CC(=O)Nc1ccc(S(=O)(=O)Nc2c(NC3CCCCC3)c3ccccc3oc2=O)cc1`, the “outcome” value was “inactive [at 46.1 µM]”.
With `CCOC(=O)N1CCN(C(=O)CNC(=O)c2nn(-c3ccc(OC)c(OC)c3)c(=O)c3ccccc23)CC1` the lipid storage change, negative = inhibition was inconclusive: 18.6%.
In the case of `COc1ccc(C(NC(=O)c2cc(OC)ccc2OC)c2ccccc2)cc1` (centres undefined), the lipid storage change, negative = inhibition is reported as inconclusive: 7.28%.
For `COc1cc(OC)c(C2Nc3cccc4cccc(c34)N2)c(OC)c1`, the lipid storage change, negative = inhibition was inconclusive: 68.2%.
In the case of `CC(C)c1nnc(NC(=O)CCS(=O)(=O)Cc2ccccc2)s1`, the Potency is reported as inconclusive: 29.1 µM [activator, single point].
For `CSCCC(NC(=O)CCNC(=O)c1ccccc1Cl)c1nc2ccccc2[nH]1` (centres undefined), the lipid storage change, negative = inhibition was inconclusive: 16.6%.
For `CC(C)CN1CCN=C1Nc1ccccc1`, the lipid storage change, negative = inhibition was inconclusive: 23.6%.
For `CC(=O)c1sc(NC(=O)c2oc3ccc(F)cc3c2C)nc1C`, the Potency was inconclusive: 6.51 µM [activator, partial curve, poor fit].
For `CCOC(=O)c1cc(CO)cc(C(=O)OCC)c1`, the lipid storage change, negative = inhibition was inconclusive: 12.4%.
In the case of `CC1(C)O[C@@H]1COc1c2ccoc2cc2oc(=O)ccc12`, the Potency is reported as inconclusive: 0.184 µM [activator, full curve].
With `Cc1c(NC(=O)C(C)OC(=O)C23CC4CC(CC(Br)(C4)C2)C3)c(=O)n(-c2ccccc2)n1C` (centres undefined) the Potency was inconclusive: 14.6 µM [cytotoxic, partial curve, poor fit].
For `Cc1[nH]c2ccccc2c1C(=O)C(=O)NC1CC1`, the Potency was inconclusive: 6.51 µM [falling, partial curve, poor fit].
In the case of `O=C(NCc1ccco1)c1cnc2n(c1=O)CCS2`, the lipid storage change, negative = inhibition is reported as inconclusive: 15.5%.
With `CCCc1nnc2n1N=C(c1ccc([N+](=O)[O-])cc1)CS2` the lipid storage change, negative = inhibition was inconclusive: 35%.
